# Source: PubChem BioAssay AID493246 (Drosophila RNAi Screening Center, 2011)
# Purpose: 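Genes fly cells need to grow and stay alive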 (primary screen)
# System: Drosophila Kc and S2R+ cells
# Knock-down reagent: long dsRNA against Drosophila genes
# Detection: 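Raw, unnormalised count of remaining cells in each well; per-plate z-scores of cell number underlie the calls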
# Reading the numbers: Kc cell number and S2R+ cell number: higher = more cells remaining
# Call rule: 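Active when the per-plate z-score of cell number is 3 or more in the direction of fewer cells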
# In all, the deposit lists about 21,000 reagents; shown is an unselected part of those with a known target gene and a result. In the full data, 429 (2%) are marked active. 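Values are raw and not normalised between plates; calls rest on per-plate z-scores that were not deposited.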 Reagents against one gene are numbered here. A plus sign joins genes that one reagent is predicted to hit. Not stated in the record: the amount of reagent, the time to read-out.
predicted target,dsRNA no.,"Kc cell number, rep 1","Kc cell number, rep 2","S2R+ cell number, rep 1","S2R+ cell number, rep 2",Call
eIF3g2 (GeneID 42422),1,1.33e6,1.31e6,9.71e5,9.86e5,inactive
gas (GeneID 37572),1,1.62e6,1.68e6,1.18e6,1.29e6,inactive
CG17712 (GeneID 33356),1,1.37e6,1.33e6,1.11e6,1.32e6,inactive
CG5139 (GeneID 33309),1,1.42e6,1.57e6,1.04e6,1.16e6,inactive
CR18275 + CG13373,1,1.63e6,1.57e6,1.06e6,1.06e6,inactive
Bem46 (GeneID 44441),1,1.64e6,1.65e6,1.16e6,1.25e6,inactive
CG13102 (GeneID 34228),1,1.64e6,1.63e6,1.05e6,1.17e6,inactive
RpLP2 (GeneID 36855),1,1.17e6,1.30e6,6.65e5,7.62e5,active
CG42322 (GeneID 42455),1,1.49e6,1.56e6,1.18e6,1.28e6,inactive
CG42322 (GeneID 42455),2,1.25e6,1.23e6,1.07e6,1.15e6,inactive
CG42322 (GeneID 42455),3,1.39e6,1.32e6,9.24e5,1.06e6,inactive
elfless (GeneID 35076),1,1.67e6,1.67e6,1.37e6,1.59e6,inactive
CG14107 (GeneID 39498),1,1.67e6,1.60e6,1.20e6,1.26e6,inactive
Mpc1 (GeneID 42268),1,1.73e6,1.70e6,1.31e6,1.32e6,inactive
Spn100A (GeneID 43642),1,5.50e5,,8.17e5,,inactive
CG7196 (retired record) (GeneID 34057),1,1.45e6,1.51e6,1.01e6,1.11e6,inactive
CG7196 (retired record) (GeneID 34057),2,1.54e6,1.56e6,1.05e6,1.24e6,inactive
CG10347 (GeneID 32141),1,1.51e6,1.43e6,1.05e6,1.08e6,inactive
CG3117 (GeneID 33484),1,1.57e6,1.57e6,1.14e6,1.17e6,inactive
Wsck (GeneID 318600),1,1.26e6,1.45e6,1.08e6,1.17e6,inactive
Rint1 (GeneID 38807),1,1.49e6,1.47e6,1.12e6,1.14e6,inactive
CG31862 (GeneID 318989),1,1.67e6,1.74e6,1.14e6,1.26e6,inactive
CG32104 (GeneID 39413),1,1.81e6,1.84e6,1.33e6,1.36e6,inactive
CG32104 (GeneID 39413),2,1.64e6,1.75e6,1.29e6,1.34e6,inactive
CG7368 (GeneID 39301),1,1.50e6,1.42e6,9.53e5,1.09e6,inactive
CG17803 (GeneID 42141),1,1.48e6,1.43e6,1.04e6,1.22e6,inactive
E(spl)m8-HLH (GeneID 43161),1,1.32e6,1.38e6,1.07e6,1.12e6,inactive
14-3-3zeta (GeneID 36059),1,1.38e6,1.42e6,1.09e6,1.09e6,inactive

Only “Kc cell number, rep 1”, for 5 of the entries above:
CG32104 (GeneID 39413) #2: 1.64e6
CG7368 (GeneID 39301): 1.50e6
CG17803 (GeneID 42141): 1.48e6
E(spl)m8-HLH (GeneID 43161): 1.32e6
14-3-3zeta (GeneID 36059): 1.38e6

More entries:
predicted target,dsRNA no.,"Kc cell number, rep 1","Kc cell number, rep 2","S2R+ cell number, rep 1","S2R+ cell number, rep 2",Call
CG10205 (GeneID 36650),1,1.45e6,1.54e6,8.92e5,1.02e6,inactive
CG13083 (GeneID 35230),1,1.52e6,1.61e6,1.32e6,3.51e5,inactive
PIG-Wb (GeneID 38220),1,1.42e6,1.32e6,1.05e6,1.30e6,inactive
mbt (GeneID 32631),1,1.59e6,1.57e6,9.80e5,1.02e6,inactive
Cby (GeneID 42574),1,1.30e6,1.29e6,1.07e6,1.17e6,inactive
CG7560 (GeneID 39276),1,1.42e6,1.60e6,1.26e6,1.34e6,inactive
eEF1delta (GeneID 34363),1,1.24e6,1.34e6,1.06e6,1.15e6,inactive
CG11370 (GeneID 40486),1,1.46e6,1.47e6,1.15e6,1.26e6,inactive
CG11035 (GeneID 40953),1,1.52e6,1.60e6,1.22e6,1.31e6,inactive
Srrm1 (GeneID 39483),1,1.35e6,1.36e6,1.09e6,1.26e6,inactive
CG4575 (retired record) (GeneID 31637),1,1.49e6,1.59e6,1.07e6,1.19e6,inactive
CG2278 (GeneID 31751),1,1.51e6,1.46e6,1.01e6,1.12e6,inactive
Lcp9 (GeneID 37963),1,1.74e6,1.82e6,1.17e6,1.36e6,inactive
CG13251 (GeneID 40286),1,1.40e6,1.48e6,1.22e6,1.27e6,inactive
CG5080 (GeneID 33299),1,1.23e6,1.28e6,9.04e5,8.93e5,inactive
twi (GeneID 37655),1,1.60e6,1.64e6,1.18e6,1.59e6,inactive
CG1943 (GeneID 40844),1,1.37e6,1.55e6,1.20e6,1.29e6,inactive
euc (GeneID 42271),1,1.48e6,1.59e6,1.01e6,9.12e5,inactive
CG13627 (GeneID 42941),1,1.38e6,1.42e6,1.03e6,1.16e6,inactive
Rh6 (GeneID 41889),1,1.47e6,1.51e6,1.16e6,1.23e6,inactive
CG31954 (GeneID 33572),1,1.58e6,1.54e6,7.58e5,8.55e5,inactive
CG14696 (GeneID 41317),1,1.59e6,1.63e6,1.33e6,1.45e6,inactive
CG8320 + ATPCL,1,1.54e6,1.59e6,1.15e6,1.24e6,inactive
tai (GeneID 34242),1,1.06e6,1.28e6,6.49e5,7.72e5,active
tai (GeneID 34242),2,1.45e6,1.50e6,1.15e6,1.27e6,inactive
SP1029 (GeneID 53473),1,1.43e6,1.45e6,9.88e5,1.08e6,inactive
SkpB (GeneID 36298),1,1.64e6,1.68e6,1.25e6,1.38e6,inactive
Mtch (GeneID 38026),1,1.35e6,1.39e6,1.21e6,1.25e6,inactive
Glt (GeneID 34193),1,1.07e6,1.17e6,9.86e5,8.91e5,inactive
Ras64B (GeneID 38494),1,1.40e6,1.26e6,1.12e6,1.34e6,inactive
Gyg (GeneID 37419),1,3.94e5,,6.29e5,,active
Gyg (GeneID 37419),2,1.54e6,1.53e6,1.27e6,3.00e5,inactive
